Laboratory results published in publication PMC4564171 (PLoS ONE, 2015).
For at least one entry, the source does not settle the construct or the ends of the probe.

Tested on: RNA polymerase (core and sigma70 holoenzyme) (Escherichia coli)
Test: EMSA
Details: 2.7 uM RNAP, 0.25 uM DNA, unaffected by 100 uM 19615; label: 5'-Cy5

“GTGCCCTGGTCTGGTTAGGCACCCCAGGCTTTACACTTTATGCTTCCGGCTCGTATAATGTGTGGAATTGTGAG (double strand) [plac probe]”: binds.
